Assay results: paper PMC4841768
These are yes or no findings as the source states them, for the method shown. Binding seen in cells or lysates may run through a third protein. Some results given as binding are weak or reduced against the parent protein; the word gives no strength.

By UniProt entry, the sequences of proteins in these tests, tags left out. Where a name states a change or a piece, a line headed by the entry shows the natural chain unless it says otherwise.
UniProt P48432: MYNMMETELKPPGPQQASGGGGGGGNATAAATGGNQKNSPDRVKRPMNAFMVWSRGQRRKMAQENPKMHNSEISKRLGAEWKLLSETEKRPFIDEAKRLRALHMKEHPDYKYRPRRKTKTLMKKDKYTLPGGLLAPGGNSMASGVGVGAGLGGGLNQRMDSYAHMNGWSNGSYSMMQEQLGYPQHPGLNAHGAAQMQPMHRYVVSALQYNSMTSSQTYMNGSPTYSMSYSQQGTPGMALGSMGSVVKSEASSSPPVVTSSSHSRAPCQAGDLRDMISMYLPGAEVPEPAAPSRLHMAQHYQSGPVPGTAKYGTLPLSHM
UniProt Q3TKT4: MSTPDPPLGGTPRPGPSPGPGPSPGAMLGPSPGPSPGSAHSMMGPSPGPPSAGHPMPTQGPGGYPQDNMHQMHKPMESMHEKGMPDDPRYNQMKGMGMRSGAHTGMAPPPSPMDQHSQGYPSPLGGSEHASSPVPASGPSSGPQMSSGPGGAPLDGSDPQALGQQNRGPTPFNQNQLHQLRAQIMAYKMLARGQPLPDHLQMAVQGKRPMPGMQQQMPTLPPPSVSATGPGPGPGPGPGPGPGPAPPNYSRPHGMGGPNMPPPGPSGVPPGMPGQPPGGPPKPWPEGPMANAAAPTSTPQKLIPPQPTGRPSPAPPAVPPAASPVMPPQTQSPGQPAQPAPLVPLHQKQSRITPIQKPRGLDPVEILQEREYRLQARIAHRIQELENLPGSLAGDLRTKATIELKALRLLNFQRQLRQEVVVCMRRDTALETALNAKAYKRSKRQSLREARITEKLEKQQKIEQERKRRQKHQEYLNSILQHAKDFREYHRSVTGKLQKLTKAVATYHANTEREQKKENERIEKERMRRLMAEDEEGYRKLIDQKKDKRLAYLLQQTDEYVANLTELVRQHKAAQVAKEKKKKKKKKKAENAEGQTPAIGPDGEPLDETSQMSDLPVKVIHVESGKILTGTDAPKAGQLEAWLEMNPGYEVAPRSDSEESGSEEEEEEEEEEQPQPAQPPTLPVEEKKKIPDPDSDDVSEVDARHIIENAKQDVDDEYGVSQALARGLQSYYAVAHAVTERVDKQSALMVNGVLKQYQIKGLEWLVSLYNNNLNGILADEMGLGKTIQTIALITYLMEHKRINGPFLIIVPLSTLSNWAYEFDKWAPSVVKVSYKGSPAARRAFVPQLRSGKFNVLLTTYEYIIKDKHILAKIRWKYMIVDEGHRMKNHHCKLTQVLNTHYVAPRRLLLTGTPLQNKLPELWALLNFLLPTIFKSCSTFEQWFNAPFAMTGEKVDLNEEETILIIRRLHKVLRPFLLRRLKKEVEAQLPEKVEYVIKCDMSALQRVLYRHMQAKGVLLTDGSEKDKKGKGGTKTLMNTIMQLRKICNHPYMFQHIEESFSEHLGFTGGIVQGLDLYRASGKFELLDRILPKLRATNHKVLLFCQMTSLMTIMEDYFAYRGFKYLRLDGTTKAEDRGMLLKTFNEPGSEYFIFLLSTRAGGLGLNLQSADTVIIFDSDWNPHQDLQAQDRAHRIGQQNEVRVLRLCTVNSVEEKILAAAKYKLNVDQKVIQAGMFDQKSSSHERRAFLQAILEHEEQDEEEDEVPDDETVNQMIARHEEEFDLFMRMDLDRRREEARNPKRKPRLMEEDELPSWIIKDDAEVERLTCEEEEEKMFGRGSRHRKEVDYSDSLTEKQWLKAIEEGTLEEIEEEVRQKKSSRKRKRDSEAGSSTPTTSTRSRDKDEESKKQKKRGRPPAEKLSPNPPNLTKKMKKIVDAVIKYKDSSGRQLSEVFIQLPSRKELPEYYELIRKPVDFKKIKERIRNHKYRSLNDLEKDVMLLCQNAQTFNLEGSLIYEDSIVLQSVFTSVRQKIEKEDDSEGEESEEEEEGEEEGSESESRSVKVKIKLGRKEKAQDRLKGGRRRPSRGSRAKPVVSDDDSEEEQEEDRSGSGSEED
UniProt P11103: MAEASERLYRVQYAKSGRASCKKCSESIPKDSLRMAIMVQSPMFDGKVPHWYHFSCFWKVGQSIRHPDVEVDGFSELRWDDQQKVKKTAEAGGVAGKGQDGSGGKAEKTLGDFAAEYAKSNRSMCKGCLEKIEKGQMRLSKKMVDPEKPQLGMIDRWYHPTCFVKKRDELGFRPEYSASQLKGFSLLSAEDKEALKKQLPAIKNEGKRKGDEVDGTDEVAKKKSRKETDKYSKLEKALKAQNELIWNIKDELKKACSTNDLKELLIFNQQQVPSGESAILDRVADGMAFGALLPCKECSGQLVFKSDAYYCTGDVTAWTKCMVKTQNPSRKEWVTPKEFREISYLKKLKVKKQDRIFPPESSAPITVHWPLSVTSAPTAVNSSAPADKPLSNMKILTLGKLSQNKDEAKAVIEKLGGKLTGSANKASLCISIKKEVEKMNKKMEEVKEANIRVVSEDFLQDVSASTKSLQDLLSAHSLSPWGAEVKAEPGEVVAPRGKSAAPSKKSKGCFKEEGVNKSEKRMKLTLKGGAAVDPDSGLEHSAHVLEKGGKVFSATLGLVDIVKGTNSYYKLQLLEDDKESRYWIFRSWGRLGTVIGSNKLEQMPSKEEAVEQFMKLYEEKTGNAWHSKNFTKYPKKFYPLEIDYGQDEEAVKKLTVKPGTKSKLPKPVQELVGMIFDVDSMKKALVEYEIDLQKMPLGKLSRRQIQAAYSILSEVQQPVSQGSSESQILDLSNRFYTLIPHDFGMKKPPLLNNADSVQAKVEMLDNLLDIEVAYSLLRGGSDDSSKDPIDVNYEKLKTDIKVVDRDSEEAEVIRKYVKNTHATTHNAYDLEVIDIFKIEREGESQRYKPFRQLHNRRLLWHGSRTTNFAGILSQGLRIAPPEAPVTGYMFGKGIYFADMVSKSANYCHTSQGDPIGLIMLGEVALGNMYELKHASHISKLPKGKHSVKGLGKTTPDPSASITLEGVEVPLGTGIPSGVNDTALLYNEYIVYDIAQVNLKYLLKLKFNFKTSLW
UniProt Q8VHR5: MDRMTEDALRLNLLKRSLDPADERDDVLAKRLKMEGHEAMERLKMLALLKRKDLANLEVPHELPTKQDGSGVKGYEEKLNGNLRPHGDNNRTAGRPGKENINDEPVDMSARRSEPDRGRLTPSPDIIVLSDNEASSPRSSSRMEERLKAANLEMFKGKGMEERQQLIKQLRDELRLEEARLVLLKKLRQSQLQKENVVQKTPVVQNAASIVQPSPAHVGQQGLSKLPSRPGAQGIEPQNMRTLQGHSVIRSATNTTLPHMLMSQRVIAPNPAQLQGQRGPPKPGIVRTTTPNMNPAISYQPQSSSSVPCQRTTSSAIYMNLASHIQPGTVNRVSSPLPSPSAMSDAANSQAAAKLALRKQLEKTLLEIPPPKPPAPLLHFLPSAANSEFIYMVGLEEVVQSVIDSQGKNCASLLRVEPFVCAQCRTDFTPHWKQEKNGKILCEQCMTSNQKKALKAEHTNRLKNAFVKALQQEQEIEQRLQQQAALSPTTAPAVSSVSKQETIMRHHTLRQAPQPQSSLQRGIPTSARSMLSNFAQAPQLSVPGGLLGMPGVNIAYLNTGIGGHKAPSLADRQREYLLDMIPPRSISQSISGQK

Target: 3xFLAG-tagged O-GlcNAc-deficient SOX2 S248A (3xF-SOX2^S248A) of fS248A-Tg mESCs (mouse) (UniProt P48432)
Experiment: co-IP; anti-FLAG IP from nuclear extracts of fSOX2-Tg and fS248A-Tg mESCs, eluted with 2X SDS-PAGE loading buffer, Western blot for SOX2, PARP1, GATAD2B, SMARCA4

| binding | Substance |
| --- | --- |
| binds | SMARCA4 (mouse, endogenous in mESCs) (from UniProt Q3TKT4 1-1613) |
| binds | PARP1 (mouse, endogenous in mESCs) (from UniProt P11103 1-1013) |
| binds | GATAD2B (mouse, endogenous in mESCs) (from UniProt Q8VHR5 1-594) |
